# Source: PubChem BioAssay (NCATS)
# By UniProt entry, the sequences of proteins in these tests, tags left out. Where a name states a change or a piece, a line headed by the entry shows the natural chain unless it says otherwise.
# UniProt P43220, whole entry, looked up: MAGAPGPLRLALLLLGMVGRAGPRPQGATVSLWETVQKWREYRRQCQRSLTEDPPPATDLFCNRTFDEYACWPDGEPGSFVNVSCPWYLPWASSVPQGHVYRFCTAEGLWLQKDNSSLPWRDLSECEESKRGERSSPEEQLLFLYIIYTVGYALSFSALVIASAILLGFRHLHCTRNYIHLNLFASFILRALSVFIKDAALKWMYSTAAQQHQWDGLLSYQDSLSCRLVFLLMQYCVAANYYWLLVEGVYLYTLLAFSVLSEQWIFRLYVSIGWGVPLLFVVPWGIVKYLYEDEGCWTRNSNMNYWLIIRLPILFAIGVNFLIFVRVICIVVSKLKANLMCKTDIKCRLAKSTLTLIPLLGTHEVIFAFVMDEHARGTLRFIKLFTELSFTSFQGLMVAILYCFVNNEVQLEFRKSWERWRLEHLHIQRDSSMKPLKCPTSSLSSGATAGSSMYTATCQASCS
# UniProt O15297: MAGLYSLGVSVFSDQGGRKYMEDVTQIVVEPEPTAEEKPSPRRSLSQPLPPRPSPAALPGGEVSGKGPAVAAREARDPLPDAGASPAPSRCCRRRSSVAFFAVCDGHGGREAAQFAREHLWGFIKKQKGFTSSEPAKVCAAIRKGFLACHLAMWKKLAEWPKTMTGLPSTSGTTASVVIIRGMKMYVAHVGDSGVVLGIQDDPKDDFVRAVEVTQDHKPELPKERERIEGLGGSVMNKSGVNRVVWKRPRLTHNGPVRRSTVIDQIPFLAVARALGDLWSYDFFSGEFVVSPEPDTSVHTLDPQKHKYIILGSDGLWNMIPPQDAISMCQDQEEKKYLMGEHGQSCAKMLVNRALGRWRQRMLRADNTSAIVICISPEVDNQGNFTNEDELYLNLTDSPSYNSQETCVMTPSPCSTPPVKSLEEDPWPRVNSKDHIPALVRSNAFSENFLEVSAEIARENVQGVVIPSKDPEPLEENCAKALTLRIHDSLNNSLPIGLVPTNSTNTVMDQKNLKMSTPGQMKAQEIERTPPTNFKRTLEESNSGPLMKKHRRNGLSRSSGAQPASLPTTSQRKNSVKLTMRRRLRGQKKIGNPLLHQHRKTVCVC
# UniProt O95398: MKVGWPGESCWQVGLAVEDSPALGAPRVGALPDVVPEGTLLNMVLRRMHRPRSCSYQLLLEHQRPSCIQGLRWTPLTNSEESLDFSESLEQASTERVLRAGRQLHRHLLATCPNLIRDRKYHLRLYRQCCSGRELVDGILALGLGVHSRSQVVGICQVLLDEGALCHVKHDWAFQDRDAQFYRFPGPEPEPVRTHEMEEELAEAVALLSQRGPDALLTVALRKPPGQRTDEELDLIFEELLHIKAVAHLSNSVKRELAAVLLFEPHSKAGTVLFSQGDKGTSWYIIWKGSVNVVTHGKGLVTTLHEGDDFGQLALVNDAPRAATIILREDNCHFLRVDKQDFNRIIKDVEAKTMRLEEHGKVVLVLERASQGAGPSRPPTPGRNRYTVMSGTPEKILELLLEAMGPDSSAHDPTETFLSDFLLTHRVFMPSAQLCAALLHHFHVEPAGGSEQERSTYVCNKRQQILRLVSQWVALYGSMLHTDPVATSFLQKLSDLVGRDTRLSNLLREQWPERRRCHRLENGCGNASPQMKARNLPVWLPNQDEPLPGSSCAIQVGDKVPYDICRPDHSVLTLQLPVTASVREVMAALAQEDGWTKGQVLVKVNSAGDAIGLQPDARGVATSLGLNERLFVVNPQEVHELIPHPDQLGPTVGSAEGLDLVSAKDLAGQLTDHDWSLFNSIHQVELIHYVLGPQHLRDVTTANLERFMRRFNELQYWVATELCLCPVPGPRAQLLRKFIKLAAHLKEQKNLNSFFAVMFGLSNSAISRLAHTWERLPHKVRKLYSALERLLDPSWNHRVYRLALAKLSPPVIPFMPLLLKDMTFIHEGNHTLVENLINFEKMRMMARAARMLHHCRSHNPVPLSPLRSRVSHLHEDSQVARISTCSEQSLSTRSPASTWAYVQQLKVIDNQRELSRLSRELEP
# This list was built around the results that the source calls inconclusive (neither active nor inactive); the mix of calls is not that of the screen. For some assays here: Potencies of inconclusive entries are doubtful fits and often do not repeat. Activity calls are given as the source filed them. Unless noted, calls follow the shape of the dose curve; as a rule, active = well fitted curve in the direction sought with a large enough effect; inconclusive = small, poorly fitted or top-dose-only effect, or another doubt; inactive = no such curve, though single readings can be large; an effect the other way counts as inactive or inconclusive.
# What was measured:
# [1] = Quantitative High-Throughput drug screen in 47 multiple myeloma cell lines against the NCATS MIPE library collection: JIM3_ECACC cell viability assay (AID 1918963; also: nearly all actives have a fitted effect of over 35% in size); details: JIM3 myeloma viability, CellTiter-Glo ATP, 48 h; at 45.8 µM (top of the series)
# How it was run: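 Luminescent ATP measurement with CellTiter-Glo gives viability, scaled between DMSO-only wells (100%) and media-only wells (0%). Cells, 500 per well, faced library compounds for 48 hours at 37C.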
# [2] = biological target: Glucagon-like peptide 1 receptor (Homo sapiens) (UniProt P43220); assay: qHTS of GLP-1 Receptor Agonists: LOPAC Validation (AID 624148);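 also: luminescence from a luciferase reporter switched on by cAMP; potency is read from the fitted curve at half-maximal effect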
# How it was run: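 Agonism scored as increased luciferase luminescence driven by cAMP in HEK293 clones carrying GLP-1R. Cells settled 12 hours, received compound for 4-6 hr at 37 deg C, 5% CO2, and were read after 12 min detection reagent at RT.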
# [3] = Cell Viability - LYMP2-001 (AID 921);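 also: cells exposed to compound for 24 h at 37 °C; 0% = DMSO only and full inhibition = tetraoctylammonium bromide control wells; nearly all actives have a fitted effect of over 70% in size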
# How it was run: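 CellTiter-Glo luminescence (intracellular ATP) after 24 hr compound exposure at 37 C, 2500 lymphoblastoid cells/well in complete medium. AC50 fitted with standard Hill equation; tetraoctylammonium bromide positive control.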
# [4] = Cell Viability - LYMP2-013 (AID 970); details: LYMP2-013 lymphoblastoid cells viability; at 92.2 µM (top of the series);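 also: cells exposed to compound for 24 h at 37 °C; 0% = DMSO only and full inhibition = tetraoctylammonium bromide control; nearly all actives have a fitted effect of over 55% in size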
# How it was run: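 Human lymphoblastoid LYMP2-013 cells, 2500/well, treated 24 h at 37 C in complete medium; viability as intracellular ATP by CellTiter-Glo luminescence after 30 min. AC50 from Hill fits of qHTS concentration-response.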
# [5] = biological target: Glucocorticoid receptor (Homo sapiens) (UniProt P04150); assay: qHTS assay for small molecule antagonists of glucocorticoid receptor signaling (AID 588533; active = well fitted inhibition curve with a large enough effect in the signal ratio, with a control signal flat, not every such curve was filed as active; inconclusive = small, poorly fitted or top-dose-only effect, or effect the other way, or a change in a side signal; the % refers to the signal ratio;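 also: cells stimulated with 2 nM dexamethasone as agonist; % is scaled to controls: 0 for no effect and ±100 for the full control effect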); details: HeLa MMTV-bla, GRE beta-lactamase ratio, antagonist mode, 18 h; activity change, negative = inhibition: at 76.8 µM (top of the series)
# [6] = qHTS profiling for inhibitors of Plasmodium falciparum proliferation (AID 504749); also: potency is read from the fitted curve at half-maximal effect; nearly all actives have a fitted effect of over 60% in size; details: P. falciparum in erythrocytes, SYBR Green DNA, 72 h; Potency: parasite line B unless noted; series mostly up to 28.7 µM
# How it was run: (§1)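 Infected RBCs, 0.3% parasitemia/2.5% Hct final; cpd 72 h, 37 C, 5% CO2; lysis buffer with saponin/triton/SYBR Green I, o/n RT dark; FI 485/535; norm. to artemisinin (0.29 uM) and DMSO.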
# GB4 = assay: as above; details: P. falciparum in erythrocytes, SYBR Green DNA, 72 h; series mostly up to 28.7 µM
# How it was run: as §1
# PC49 = assay: as above; details: P. falciparum in erythrocytes, SYBR Green DNA, 72 h; activity, negative = inhibition: at 28.7 µM (top of the series)
# How it was run: as §1
# [7] = qHTS of pediatric cancer cell lines to identify multiple opportunities for drug repurposing: Confirmatory screen for DAOY cells (AID 1347114); details: DAOY medulloblastoma cells viability, cytotoxicity qHTS; also: potency is read from the fitted curve at half-maximal effect; nearly all actives have a fitted effect of over 65% in size
# How it was run: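 Viability measured as metabolically active cells via CellTiter-Glo luminescence following 48 hours of compound exposure, 11-point dilutions in confirmatory testing. 500-1,000 cells/well plated 5 hours before dosing; controls were DMSO and 2.3 µM bortezomib.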
# [8] = qHTS of pediatric cancer cell lines to identify multiple opportunities for drug repurposing: Confirmatory screen for BT-12 cells (AID 1347112); details: BT-12 rhabdoid tumor cells, viability; at 45.9 µM (top of the series); also: % is scaled to controls: 0 for no effect and ±100 for the full control effect; nearly all actives have a fitted effect of over 55% in size
# How it was run: (§2)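 Cells (500-1,000/well) rested 5 h, then received compounds for 48 h; metabolically active cells were measured by CellTiter-Glo luminescence. Final concentrations spanned up to 46 µM (MIPE, 11-point) or 0.59 nM-46 µM (NPC, 8-point) in primary screens, 11-point in follow-ups.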
# [9] = qHTS of pediatric cancer cell lines to identify multiple opportunities for drug repurposing: Confirmatory screen for LAN-5 cells (AID 1347113); details: LAN-5 neuroblastoma cell viability; also: potency is read from the fitted curve at half-maximal effect; nearly all actives have a fitted effect of over 65% in size
# How it was run: as §2
# [10] = qHTS of pediatric cancer cell lines to identify multiple opportunities for drug repurposing: Confirmatory screen for TC32 cells (AID 1347118); details: TC32 Ewing sarcoma cells viability qHTS;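 also: potency is read from the fitted curve at half-maximal effect; cells exposed to compound for 48 h before the read; nearly all actives have a fitted effect of over 65% in size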
# How it was run: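 Luminescent CellTiter-Glo read-out of metabolically active TC32 cells after 48 h compound exposure. Primary: MIPE 11-point, 0.78 nM–46 µM; NPC 8-point, 0.59 nM–46 µM. Confirmatory: 11-point dilutions.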
# [11] = qHTS of pediatric cancer cell lines to identify multiple opportunities for drug repurposing: Confirmatory screen for Rh41 cells (AID 1347123); details: Rh41 rhabdomyosarcoma cells, viability/cytotoxicity qHTS; at 45.9 µM (top of the series);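 also: plate controls were DMSO for no effect and bortezomib for full effect; nearly all actives have a fitted effect of over 60% in size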
# How it was run: as §2
# [12] = qHTS of pediatric cancer cell lines to identify multiple opportunities for drug repurposing: Confirmatory screen for RD cells (AID 1347124); details: RD rhabdomyosarcoma cell viability;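 also: potency is read from the fitted curve at half-maximal effect; cells exposed to compound for 48 h before viability readout; nearly all actives have a fitted effect of over 65% in size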
# How it was run: as §2
# [13] = qHTS of pediatric cancer cell lines to identify multiple opportunities for drug repurposing: Confirmatory screen for Rh18 cells (AID 1347125); details: Rh18 rhabdomyosarcoma cells, viability; at 45.9 µM (top of the series); also: % is scaled to controls: 0 for no effect and ±100 for the full control effect; nearly all actives have a fitted effect of over 55% in size
# How it was run: as §2
# [14] = qHTS to identify inhibitors of the type 1 interferon - major histocompatibility complex class I in skeletal muscle: primary screen against the NCATS Mechanism Interrogation Plate v5.0 (MIPE) Libary (AID 1347411); details: iHSKM cells + IFN-b, HiBiT-tagged MHC-I luminescence, 24 h; activity change, negative = inhibition: at 45.8 µM (top of the series)
# How it was run: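 Immortalized human myoblasts (C25cl48) with HiBit knocked into endogenous HLA-B*08:01 were stimulated with 4 ng/ml IFN-beta and given compounds in 11-point 1:3 titration from 46 uM. After 24 h at 37 C, lytic HiBiT luminescence was read.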
# [15] = biological target: Protein phosphatase 1D (Homo sapiens) (UniProt O15297); assay: RapidFire Mass Spectrometry qHTS Assay for Modulators of WT P53-Induced Phosphatase 1 (WIP1) (AID 1347424); details: WIP1 dephosphorylation of phosphopeptide, RapidFire MS; at 63 µM (top of the series);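 also: amount of dephosphorylated VEPPL-S-QETFS peptide product formed by WIP1; plate controls were DMSO wells for no effect and GSK830371 inhibitor control at 10 µM for full effect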
# How it was run: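 10 nM WIP1 + cpd, 1 h RT; + 2 uM VEPPL-pS-QETFS, 5 min RT; stop 0.5% formic acid; labelled product standard 1 uM; RapidFire MS. Buffer 50 mM Tris pH 7.5, 30 mM MgCl2, 1 mM TCEP.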
# [16] = qHTS assay to identify inhibitors of the type 1 interferon - major histocompatibility complex class I in skeletal muscle: Counter screen cell viability and HiBit confirmation (AID 1347412); details: iHSKM muscle cells + IFN-b, HiBiT or CellTiter-Glo, 24 h; HiBiT; also: potency is read from the fitted curve at half-maximal effect; nearly all actives have a fitted effect of over 60% in size
# How it was run: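 Duplicate plates, pinned identically: one read for HiBiT-tagged endogenous HLA-B luminescence, the other for ATP-content viability via CellTiter Glo. Cells were genome-engineered human myoblasts given 4 ng/ml IFN-b; compounds 12-pt, 1:3 from 46 uM final; 24 hr exposure.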
# [17] = High Content Imaging Cell-Based qHTS for Inhibitors of the mTORC1 Signaling Pathway in MEF (Tsc2-/-, p53-/-) Cells (AID 2666); details: at 38.3 µM (top of the series);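 also: percent of cells scored positive for phospho-rpS6 Ser235/236 immunostaining by imaging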
# How it was run: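 Cells were plated, dosed with compound after 24 hrs, and incubated another 24 hrs at 37 degree Celsius. Fixed cells were immunostained for phospho-rpS6 Ser235/236 and counterstained, and the normalized signal was scored as % active cells against rapamycin and DMSO controls.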
# [18] = biological target: Rap guanine nucleotide exchange factor 3 (Homo sapiens) (UniProt O95398); assay: Confirmatory qHTS for agonist of cAMP-regulated guanine nucleotide exchange factor 3 (EPAC1) (AID 1645881); details: EPAC1 Rap1B BODIPY-GDP exchange fluorescence; activation: at 154 µM (top of the series), 100% = cAMP control response; also: potency is read from the fitted curve at half-maximal effect; nearly all actives have a fitted effect of over 75% in size
smiles,measurement,setting,value
O=c1ccn([C@@H]2O[C@H](CO)[C@H](O)[C@@H]2F)c(=O)[nH]1,"viability, percent of control",[1],inactive: 117%
Nc1nc(Cl)nc2c1ncn2[C@@H]1O[C@H](CO)[C@@H](O)[C@H]1O,Potency,[2],"inconclusive: 2.91 µM [activator, full curve]"
O=C(c1ccccc1)C(O)c1ccccc1 (stereo not given),Potency,[3],inactive
same,"activity change, negative = cytotoxic",[4],inactive: -7.77%
same,"activity change, negative = inhibition",[5],inconclusive: -9.28%
same,Potency,[6],"inconclusive: 11.2 µM [inhibitor, single point] [parasite line A]"
same,Potency,GB4,"inconclusive: 13.5 µM [inhibitor, single point]"
same,Potency,PC49,"inconclusive: 17.8 µM [inhibitor, single point]"
CC(=O)O[C@H]1C[C@@H]2CC[C@H]3[C@H]4C[C@H]([N+]5(C)CCCCC5)[C@@H](OC(C)=O)[C@@]4(C)CC[C@@H]3[C@@]2(C)C[C@H]1N1CCCCC1,Potency,[7],"inconclusive: 14.7 µM [cytotoxic, partial curve]"
C[C@H]1C[C@@H]2[C@H]([C@@H](O)C[C@@]3(C)[C@H]2CC[C@]3(O)C(=O)CO)[C@@]2(C)C=CC(=O)C=C12,"activity change, negative = cytotoxic",[8],inactive: -4.7%
same,Potency,[9],"inconclusive: 36.9 µM [cytotoxic, single point]"
same,Potency,[10],"inconclusive: 32.9 µM [cytotoxic, single point]"
same,"activity change, negative = cytotoxic",[11],inactive: -19.2%
same,Potency,[12],"inconclusive: 36.9 µM [cytotoxic, partial curve, poor fit]"
same,"activity change, negative = cytotoxic",[13],inactive: -26.6%
same,Potency,[14],"inconclusive: 0.0083 µM [inhibitor, full curve, poor fit]"
same,"activity change, negative = inhibition",[15],inactive: 6.17%
same,Potency,[16],"inconclusive: 0.014 µM [inhibitor, full curve, poor fit]"
Nc1ncnc2c1nc(Sc1ccc(Cl)cc1)n2[C@H]1OC2COP(=O)(O)O[C@@H]2C1O (stereo not given in full),outcome,[17],inactive
same,Potency,[18],active: 0.998 µM

# Rewritten bar-delimited: entries from further up.
smiles | measurement | setting | value
C[C@H]1C[C@@H]2[C@H]([C@@H](O)C[C@@]3(C)[C@H]2CC[C@]3(O)C(=O)CO)[C@@]2(C)C=CC(=O)C=C12 | Potency | [9] | inconclusive: 36.9 µM [cytotoxic, single point]
same | Potency | [10] | inconclusive: 32.9 µM [cytotoxic, single point]
